Positions count from the first letter of the chain named. Results are given in words; binding and its absence hold for the method and conditions named. Binding seen in cells or lysates may run through a third protein. Binding calls can cover weak binding; strength is not graded here. Where a sequence is shown, tags or fusion partners need not be part of it.
Experiments:
Assay in all cases: co-IP; EGFP fusion (bait) expressed in HEK293T with the co-transfected or endogenous partner; lysis in 50 mM Tris-HCl pH 7.5, 150 mM NaCl, 1% Igepal CA-630; EGFP fusions immunoprecipitated with GFP-Trap magnetic agarose beads for 2 hr or overnight at 4 °C; Western blot
[1] = molecular target: T1, EGFP-INPP5E (W383A) (human) (UniProt Q9NRR6)
T1 sequence (chain, CaaX box cysteine C641 farnesylated in cells, as the paper says of INPP5E): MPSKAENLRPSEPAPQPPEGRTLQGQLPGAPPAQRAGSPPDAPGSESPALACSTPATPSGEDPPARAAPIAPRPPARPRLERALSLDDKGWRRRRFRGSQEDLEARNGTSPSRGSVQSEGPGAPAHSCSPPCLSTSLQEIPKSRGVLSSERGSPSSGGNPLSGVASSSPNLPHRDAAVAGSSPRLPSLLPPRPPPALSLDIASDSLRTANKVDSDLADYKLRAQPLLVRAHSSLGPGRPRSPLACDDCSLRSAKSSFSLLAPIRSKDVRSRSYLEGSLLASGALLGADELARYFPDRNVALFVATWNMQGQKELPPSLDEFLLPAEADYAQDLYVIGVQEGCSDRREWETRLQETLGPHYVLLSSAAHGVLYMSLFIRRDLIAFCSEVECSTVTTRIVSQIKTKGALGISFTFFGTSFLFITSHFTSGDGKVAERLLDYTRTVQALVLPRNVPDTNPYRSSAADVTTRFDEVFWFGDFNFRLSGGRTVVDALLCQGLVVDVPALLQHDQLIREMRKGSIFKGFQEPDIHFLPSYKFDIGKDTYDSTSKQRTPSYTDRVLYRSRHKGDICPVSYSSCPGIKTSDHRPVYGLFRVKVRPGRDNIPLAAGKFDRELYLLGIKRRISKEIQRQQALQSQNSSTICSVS

[2] = molecular target: T2, EGFP-INPP5E (wild type) (human) (UniProt Q9NRR6)
T2 sequence (chain, CaaX box cysteine C641 farnesylated in cells, as the paper says of INPP5E): T1 sequence (chain, CaaX box cysteine C641 farnesylated in cells, as the paper says of INPP5E) with A383W

[3] = molecular target: T3, EGFP-INPP5E (C641S) (human) (UniProt Q9NRR6)
T3 sequence: T1 sequence (chain, CaaX box cysteine C641 farnesylated in cells, as the paper says of INPP5E) with A383W, C641S

[4] = molecular target: T4, EGFP-INPP5E (251-644) (human) (UniProt Q9NRR6)
T4 sequence (chain, CaaX box cysteine C641 farnesylated in cells, as the paper says of INPP5E): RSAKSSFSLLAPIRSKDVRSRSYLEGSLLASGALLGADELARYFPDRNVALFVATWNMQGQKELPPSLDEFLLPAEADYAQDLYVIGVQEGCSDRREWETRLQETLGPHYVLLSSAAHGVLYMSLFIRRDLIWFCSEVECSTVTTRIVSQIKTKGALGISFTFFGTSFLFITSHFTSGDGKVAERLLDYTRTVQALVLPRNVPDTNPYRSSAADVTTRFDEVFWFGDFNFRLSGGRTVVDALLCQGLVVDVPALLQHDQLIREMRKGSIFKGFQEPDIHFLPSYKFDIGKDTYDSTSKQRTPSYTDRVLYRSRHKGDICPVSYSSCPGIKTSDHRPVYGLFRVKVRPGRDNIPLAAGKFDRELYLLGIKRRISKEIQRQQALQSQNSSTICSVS

[5] = molecular target: T5, EGFP-INPP5E (FDR609AAA) (human) (UniProt Q9NRR6)
T5 sequence (chain, CaaX box cysteine C641 farnesylated in cells, as the paper says of INPP5E): T1 sequence (chain, CaaX box cysteine C641 farnesylated in cells, as the paper says of INPP5E) with A383W, F609A, D610A, R611A

[6] = molecular target: T6, EGFP-INPP5E (Δ251–273) (human) (UniProt Q9NRR6)
T6 sequence (chain, CaaX box cysteine C641 farnesylated in cells, as the paper says of INPP5E): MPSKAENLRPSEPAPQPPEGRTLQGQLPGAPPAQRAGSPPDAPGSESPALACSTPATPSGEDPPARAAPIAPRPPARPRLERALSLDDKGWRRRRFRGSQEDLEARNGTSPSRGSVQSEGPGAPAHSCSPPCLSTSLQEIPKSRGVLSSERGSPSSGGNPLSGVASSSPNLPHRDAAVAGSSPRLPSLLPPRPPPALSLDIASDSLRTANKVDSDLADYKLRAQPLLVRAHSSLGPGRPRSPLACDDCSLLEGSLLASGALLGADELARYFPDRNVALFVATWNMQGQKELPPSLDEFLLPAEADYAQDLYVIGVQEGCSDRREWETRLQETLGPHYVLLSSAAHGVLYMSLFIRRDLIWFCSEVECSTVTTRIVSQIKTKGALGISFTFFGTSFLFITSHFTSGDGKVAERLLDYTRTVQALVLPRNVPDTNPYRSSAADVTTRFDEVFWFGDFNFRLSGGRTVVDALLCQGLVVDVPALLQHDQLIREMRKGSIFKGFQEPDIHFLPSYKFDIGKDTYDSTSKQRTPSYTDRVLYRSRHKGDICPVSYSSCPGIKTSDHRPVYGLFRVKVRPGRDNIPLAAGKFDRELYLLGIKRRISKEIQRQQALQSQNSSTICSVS

[7] = molecular target: T7, EGFP-INPP5E (Δ251–273+C641S) (human) (UniProt Q9NRR6)
T7 sequence: T6 sequence (chain, CaaX box cysteine C641 farnesylated in cells, as the paper says of INPP5E) with C618S

[8] = molecular target: T8, EGFP-INPP5E (1-283) (human) (UniProt Q9NRR6)
T8 sequence: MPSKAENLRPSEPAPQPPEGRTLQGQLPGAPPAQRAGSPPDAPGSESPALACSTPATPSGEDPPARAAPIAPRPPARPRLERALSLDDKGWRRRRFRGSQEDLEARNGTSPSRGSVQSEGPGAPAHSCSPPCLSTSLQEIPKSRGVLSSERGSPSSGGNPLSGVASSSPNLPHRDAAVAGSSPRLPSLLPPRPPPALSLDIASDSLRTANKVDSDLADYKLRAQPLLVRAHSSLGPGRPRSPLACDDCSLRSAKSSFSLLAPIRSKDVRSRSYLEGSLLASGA

binding [1]	binding [2]	binding [3]	binding [4]	binding [5]	binding [6]	binding [7]	binding [8]	Substance
binds	–	–	–	–	–	–	–	ARL13B-Flag (human)
–	no binding	–	–	–	–	–	–	CSNK2A1-myc (mouse) (enzyme)
binds	binds	binds	binds	binds	binds	binds weakly	binds weakly	Flag-ATG16L1 (human)
binds	binds	no binding	binds	binds	binds	no binding	no binding	Flag-PDE6D (human)
binds	binds	no binding	binds	binds	binds	no binding	no binding	Flag-RPGR (human)
binds weakly	binds	binds	binds	binds weakly	binds	binds	binds weakly	TULP3-myc (human)

— paper PMC9444247
